Results on one substance are retold here after patent US20030215820A1.

The chains behind the UniProt entries cited, without tags or fusion partners. Where a name states a change or a piece, a line headed by the entry shows the natural chain unless it says otherwise. Residues count along the entry.
UniProt P19438, residues 30-455: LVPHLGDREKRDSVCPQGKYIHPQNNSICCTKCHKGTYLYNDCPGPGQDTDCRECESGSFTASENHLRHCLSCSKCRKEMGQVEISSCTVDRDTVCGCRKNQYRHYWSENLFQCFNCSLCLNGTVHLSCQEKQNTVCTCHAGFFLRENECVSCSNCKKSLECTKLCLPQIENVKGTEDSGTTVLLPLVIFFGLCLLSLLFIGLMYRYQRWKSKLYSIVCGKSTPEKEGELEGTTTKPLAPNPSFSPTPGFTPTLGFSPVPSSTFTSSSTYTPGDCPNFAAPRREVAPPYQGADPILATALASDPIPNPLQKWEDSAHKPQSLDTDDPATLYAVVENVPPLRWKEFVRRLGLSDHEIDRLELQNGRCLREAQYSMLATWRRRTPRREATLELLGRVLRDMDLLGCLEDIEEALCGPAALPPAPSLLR
UniProt Q9NZ08: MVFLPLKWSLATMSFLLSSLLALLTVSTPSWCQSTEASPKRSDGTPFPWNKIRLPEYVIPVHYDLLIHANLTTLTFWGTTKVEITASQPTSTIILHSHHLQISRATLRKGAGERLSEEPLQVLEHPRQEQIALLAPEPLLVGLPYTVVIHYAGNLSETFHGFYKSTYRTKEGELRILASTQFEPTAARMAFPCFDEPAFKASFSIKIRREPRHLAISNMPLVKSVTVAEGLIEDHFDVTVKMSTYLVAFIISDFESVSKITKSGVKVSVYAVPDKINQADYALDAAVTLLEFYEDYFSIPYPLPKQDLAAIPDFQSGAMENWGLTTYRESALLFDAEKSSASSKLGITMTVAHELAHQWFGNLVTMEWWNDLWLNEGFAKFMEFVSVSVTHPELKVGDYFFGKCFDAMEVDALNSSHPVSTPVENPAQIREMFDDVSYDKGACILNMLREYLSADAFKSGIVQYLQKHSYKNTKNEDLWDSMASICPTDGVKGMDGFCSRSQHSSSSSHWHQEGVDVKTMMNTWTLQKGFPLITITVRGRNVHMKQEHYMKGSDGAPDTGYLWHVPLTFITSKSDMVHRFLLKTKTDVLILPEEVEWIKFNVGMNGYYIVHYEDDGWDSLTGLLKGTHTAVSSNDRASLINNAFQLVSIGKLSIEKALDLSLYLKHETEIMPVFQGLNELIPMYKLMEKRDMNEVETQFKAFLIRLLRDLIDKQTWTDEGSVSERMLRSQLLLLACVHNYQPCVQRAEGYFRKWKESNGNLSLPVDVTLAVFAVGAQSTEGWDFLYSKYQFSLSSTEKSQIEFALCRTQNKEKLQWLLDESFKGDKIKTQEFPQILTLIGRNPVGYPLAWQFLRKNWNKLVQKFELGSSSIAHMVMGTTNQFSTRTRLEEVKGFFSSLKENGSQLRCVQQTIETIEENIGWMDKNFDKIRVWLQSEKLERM

Results are given in words; binding and its absence hold for the method and conditions named. Binding seen in cells or lysates may run through a third protein. Some entries that bind do so weakly or less than the wild type.

For assay [1], the target named is type I, 55 kDa tumor necrosis factor receptor (TNFR1) of NCI-H292 cells (human) (UniProt P19438). Description: co-immunoprecipitation with anti-TNFR1 antibody from membrane fractions of stably transfected NCI-H292 lines, immunoblot with anti-ARTS-1 antiserum.
Assay [2] has the same target. The experiment in a line: co-immunoprecipitation from NCI-H292 membrane fractions, Western immunoblot.

As for “ARTS-1 polypeptide (aminopeptidase regulator of type I, 55 kDa tumor necrosis factor receptor ectodomain shedding) in NCI-H292 and other human cells (from UniProt Q9NZ08 1-941) (enzyme)”, the binding result in assay [1] and in assay [2] was “binds” in each case.
